Results reported in patent US8624027B2, “Combination therapy for treating cancer and diagnostic assays for use therein” (AbbVie Inc., priority 2005, dated 2014).

Experiment: Pharmacokinetic evaluation in rat
Type: in vivo
Experimental: The pharmacokinetic behavior of compounds of this disclosure was determined following a single 2 mg/kg intravenous or 5 mg/kg oral dose in male Sprague-Dawley derived rats (n=3 per group). The compounds were prepared as 2 mg/mL solution in a 10% DMSO in PEG-400 formulation for both oral and intravenous administration. The 1 mL/kg intravenous dose was administered as a slow bolus (about 1-2 minutes) in the jugular vein of a rat under light ether anesthetic. The oral dose was administered by gavage. Serial blood samples were obtained from a tail vein of each rat prior 0.1 (IV only), 0.25, 0.5, 1, 1.5, 2, 3, 4, 6, 8 and 24 hours after dosing. The heparinized samples were thoroughly mixed and placed in an ice bath. Plasma was separated by centrifugation and stored frozen prior to analysis.
The compounds of interest were separated from the plasma using protein precipitation with acetonitrile. A plasma (100-200 μL, sample or spiked standard) aliquot was combined with 50 μL of internal standard (structurally related analog prepared in acetonitrile) and 1 ml acetonitrile in a 96-well polypropylene deep well plate. The plates were vortexed for 30 seconds followed by centrifugation (3500 rpm×15 minutes, 4° C.). In an automated manner, the supernatant was transferred to a clean 96-well plate. The samples were evaporated to near dryness on a Micro-Vap™ under a stream of dry nitrogen over low heat (˜37° C.). The samples were reconstituted vortexing with 0.2 mL 5% DMSO in acetonitrile. A 0.1-0.2 ml aliquot of acetonitrile: 0.1% trifluoroacetic acid (20:80, by volume) was added to each well, followed by an additional 30 second vortexing. The plates were centrifuged (3500 rpm×15 minutes, 4° C.) prior to HPLC-MS/MS analysis. Samples were analyzed simultaneously with spiked plasma standards. All samples from each study were analyzed as a single batch on the LC-MS/MS.
The compounds of interest and the internal standard were separated from each other and co-extracted contaminants on a 50×3 mm Keystone Betasil CN 5 μm column with an acetonitrile: 0.1% trifluoroacetic acid mobile phase (50:50, by volume) at a flow rate of 0.7 ml/min. Analysis was performed on a Sciex API 300™ Biomolecular Mass Analyzer using a heated nebulizer interface. Peak areas of the title compounds and internal standards were determined using the Sciex MacQuan™ software. Calibration curves were derived from peak area ratio (parent drug/internal standard) of the spiked rat plasma standards using least squares linear regression of the ratio versus the theoretical concentration. The methods were generally linear over the range of the standard curve (correlation coefficients >0.99) with an estimated quantitation limit of 0.01 μg/mL. The plasma concentration data for each animal were submitted to multi-exponential curve fitting using WinNonlin. The area under the plasma concentration-time curve from 0 to t hours (time of the last measurable plasma concentration) after dosing (AUC0-t) was calculated using the linear trapezoidal rule for the plasma concentration-time profiles. The residual area extrapolated to infinity, determined as the final measured plasma concentration (Ct) divided by the terminal elimination rate constant (β), was added to AUC0-t to produce the total area under the curve (AUC0-∞). Ki values shown in the tables below were determined using Wang's equation (Wang Z X., An Exact Mathematical Expression For Describing Competitive Binding Of Two Different Ligands To A Protein Molecule. FEBS Lett. 1995; 360:111-4)).

[1] = rat oral AUC / NCI-H146 EC50, Table 1

Compound | PK/PD ratio AUC/EC50 [1] | PK/PD ratio AUC/EC50 (Table 3) | PK/PD ratio AUC/EC50 (Table 2)
O=C(NS(=O)(=O)c1ccc(N[C@H](CCN2CCCC2)CSc2ccccc2)c(S(=O)(=O)C(F)(F)F)c1)c1ccc(N2CCN(CC3=C(c4ccc(Cl)cc4)CCCCC3)CC2)cc1 [Example 29, N-(4-(4-((2-(4-chlorophenyl)cyclohept-1-en-1-yl)methyl)piperazin-1-yl)benzoyl)-4-(((1R)-1-((phenylsulfanyl)methyl)-3-(pyrrolidin-1-yl)propyl)amino)-3-((trifluoromethyl)sulfonyl)benzenesulfonamide] | 58 |  | 
CC1(C)CCC(c2ccc(Cl)cc2)=C(CN2CCN(c3ccc(C(=O)NS(=O)(=O)c4ccc(N[C@H](CCN5CCCC5)CSc5ccccc5)c(S(=O)(=O)C(F)(F)Cl)c4)cc3)CC2)C1 [Example 30, 3-((chloro(difluoro)methyl)sulfonyl)-N-(4-(4-((2-(4-chlorophenyl)-5,5-dimethylcyclohex-1-en-1-yl)methyl)piperazin-1-yl)benzoyl)-4-(((1R)-1-((phenylsulfanyl)methyl)-3-(pyrrolidin-1-yl)propyl)amino)benzenesulfonamide] | 107 |  | 
CC1(C)CCC(CN2CCN(c3ccc(C(=O)NS(=O)(=O)c4ccc(N[C@H](CCN5CCCC5)CSc5ccccc5)c(S(=O)(=O)C(F)(F)Cl)c4)cc3)CC2)=C(c2ccc(Cl)cc2)C1 [Example 31, 3-((chloro(difluoro)methyl)sulfonyl)-N-(4-(4-((2-(4-chlorophenyl)-4,4-dimethylcyclohex-1-en-1-yl)methyl)piperazin-1-yl)benzoyl)-4-(((1R)-1-((phenylsulfanyl)methyl)-3-(pyrrolidin-1-yl)propyl)amino)benzenesulfonamide] | 392 |  | 
O=C(NS(=O)(=O)c1ccc(N[C@H](CCN2CCCC2)CSc2ccccc2)c(S(=O)(=O)C(F)(F)Cl)c1)c1ccc(N2CCN(CC3=C(c4ccc(Cl)cc4)CCCCC3)CC2)cc1 [Example 32, 3-((chloro(difluoro)methyl)sulfonyl)-N-(4-(4-((2-(4-chlorophenyl)cyclohept-1-en-1-yl)methyl)piperazin-1-yl)benzoyl)-4-(((1R)-1-((phenylsulfanyl)methyl)-3-(pyrrolidin-1-yl)propyl)amino)benzenesulfonamide] | 73.9 |  | 
CC(C)N(C)CC[C@H](CSc1ccccc1)Nc1ccc(S(=O)(=O)NC(=O)c2ccc(N3CCN(CC4=C(c5ccc(Cl)cc5)CCCC4)CC3)cc2)cc1S(=O)(=O)C(F)(F)F [Example 33, N-(4-(4-((2-(4-chlorophenyl)cyclohex-1-en-1-yl)methyl)piperazin-1-yl)benzoyl)-4-(((1R)-3-(isopropyl(methyl)amino)-1-((phenylsulfanyl)methyl)propyl)amino)-3-((trifluoromethyl)sulfonyl)benzenesulfonamide] | 79.8 | 79.8 | 
CC1(C)CCC(CN2CCN(c3ccc(C(=O)NS(=O)(=O)c4ccc(N[C@H](CCN5CCCC5)CSc5ccccc5)c(S(=O)(=O)C(F)(F)F)c4)cc3)CC2)=C(c2ccc(Cl)cc2)C1 [Example 34, N-(4-(4-((2-(4-chlorophenyl)-4,4-dimethylcyclohex-1-en-1-yl)methyl)piperazin-1-yl)benzoyl)-4-(((1R)-1-((phenylsulfanyl)methyl)-3-(pyrrolidin-1-yl)propyl)amino)-3-((trifluoromethyl)sulfonyl)benzenesulfonamide] | 554 |  | 
O=C(NS(=O)(=O)c1ccc(N[C@H](CCN2CCCC2)CSc2ccccc2)c(S(=O)(=O)C(F)(F)Cl)c1)c1ccc(N2CCN(CC3=C(c4ccc(Cl)cc4)CCCC3)CC2)cc1 [Example 35, 3-((chloro(difluoro)methyl)sulfonyl)-N-(4-(4-((2-(4-chlorophenyl)cyclohex-1-en-1-yl)methyl)piperazin-1-yl)benzoyl)-4-(((1R)-1-((phenylsulfanyl)methyl)-3-(pyrrolidin-1-yl)propyl)amino)benzenesulfonamide] | 166 |  | 
CC1(C)CCC(CN2CCN(c3ccc(C(=O)NS(=O)(=O)c4ccc(N[C@H](CCN5C[C@@H]6C[C@H]5CO6)CSc5ccccc5)c(S(=O)(=O)C(F)(F)F)c4)cc3)CC2)=C(c2ccc(Cl)cc2)C1 [Example 36, N-(4-(4-((2-(4-chlorophenyl)-4,4-dimethylcyclohex-1-en-1-yl)methyl)piperazin-1-yl)benzoyl)-4-(((1R)-3-((1S,4S)-2-oxa-5-azabicyclo[2.2.1]hept-5-yl)-1-((phenylsulfanyl)methyl)propyl)amino)-3-((trifluoromethyl)sulfonyl)benzenesulfonamide] | 174 |  | 
CN(C)CC[C@H](CSc1ccccc1)Nc1ccc(S(=O)(=O)NC(=O)c2ccc(N3CCN(CC4=C(c5ccc(Cl)cc5)CC(C)(C)CC4)CC3)cc2)cc1S(=O)(=O)C(F)(F)F [Example 37, N-(4-(4-((2-(4-chlorophenyl)-4,4-dimethylcyclohex-1-en-1-yl)methyl)piperazin-1-yl)benzoyl)-4-(((1R)-3-(dimethylamino)-1-((phenylsulfanyl)methyl)propyl)amino)-3-((trifluoromethyl)sulfonyl)benzenesulfonamide] | 417 |  | 
CN(C)CC[C@H](CSc1ccccc1)Nc1ccc(S(=O)(=O)NC(=O)c2ccc(N3CCN(Cc4ccccc4-c4ccc(Cl)cc4)CC3)cc2)cc1S(=O)(=O)C(F)(F)F [Example 38, N-(4-(4-((4′-chloro(1,1′-biphenyl)-2-yl)methyl)-1-piperazinyl)benzoyl)-4-(((1R)-3-(dimethylamino)-1-((phenylsulfanyl)methyl)propyl)amino)-3-((trifluoromethyl)sulfonyl)benzenesulfonamide] | 17 |  | 16.9
O=C(NS(=O)(=O)c1ccc(N[C@H](CCN2CCOCC2)CSc2ccccc2)c(S(=O)(=O)C(F)(F)F)c1)c1ccc(N2CCN(Cc3ccccc3-c3ccc(Cl)cc3)CC2)cc1 [Example 39, N-(4-(4-((4′-chloro(1,1′-biphenyl)-2-yl)methyl)-1-piperazinyl)benzoyl)-4-(((1R)-3-(4-morpholinyl)-1-((phenylsulfanyl)methyl)propyl)amino)-3-((trifluoromethyl)sulfonyl)benzenesulfonamide] | 20 |  | 20.0
CN(C)CC[C@H](CSc1ccccc1)Nc1ccc(S(=O)(=O)NC(=O)c2ccc(N3CCN(CC4=C(c5ccc(Cl)cc5)CCCC4)CC3)cc2)cc1[N+](=O)[O-] [G, reference compound] |  | 19.7 | 
CN(C)CC[C@H](CSc1ccccc1)Nc1ccc(S(=O)(=O)NC(=O)c2ccc(N3CCN(CC4=C(c5ccc(Cl)cc5)CCCC4)CC3)cc2)cc1C(F)(F)F [H, reference compound] |  | 4.8 | 
